Measured values: patent publication US20250289861A1
These are yes or no findings as the source states them, for the method shown. Binding calls can cover weak binding; strength is not graded here. Tags and fused reporters may be left off the sequences shown.

The chains behind the UniProt entries cited, without tags or fusion partners. Where a name states a change or a piece, a line headed by the entry shows the natural chain unless it says otherwise.
UniProt P55899: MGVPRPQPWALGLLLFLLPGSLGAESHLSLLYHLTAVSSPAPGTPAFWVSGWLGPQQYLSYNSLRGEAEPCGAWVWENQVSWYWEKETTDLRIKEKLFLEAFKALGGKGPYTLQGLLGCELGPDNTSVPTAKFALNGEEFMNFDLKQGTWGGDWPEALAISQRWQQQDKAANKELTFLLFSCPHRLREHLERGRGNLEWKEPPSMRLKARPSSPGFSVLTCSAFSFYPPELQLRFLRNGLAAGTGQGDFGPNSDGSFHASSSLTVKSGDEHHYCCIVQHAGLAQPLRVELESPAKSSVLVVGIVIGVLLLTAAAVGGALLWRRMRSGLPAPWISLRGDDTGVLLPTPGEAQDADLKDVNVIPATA

Key:
[1] = biological target: Human FcRn-GST protein (human) (UniProt P55899); assay: ELISA at pH 7.4: fusion protein coated on the plate, Human FcRn-GST titrated (x axis, ug/ml), anti-GST Ab-HRP, A450
[2] = biological target: Human FcRn-GST protein (human) (UniProt P55899); assay: ELISA at pH 6.0: fusion protein coated on the plate, Human FcRn-GST titrated (x axis, ug/ml), anti-GST Ab-HRP, A450
[3] = biological target: Human FcRn-GST protein (human) (UniProt P55899); assay: ELISA, fusion coated at 4 ug/mL, Human FcRn-GST titrated, pH 6.0 and 7.4, anti-GST Ab-HRP

Measured: binding

B1: PF1802_M022 (GLP1-Fc-mut.IGF1) (Fc fusion)
chain: HGEGTFTSDVSSYLEEQAAKEFIAWLVKGGGGSAPAPGGGGSDKTHTCPPCPAPELLGGPSVFLFPPKPKDTLMISRTPEVTCVVVDVSHEDPEVKFNWYVDGVEVHNAKTKPREEQYASTYRVVSVLTVEHWDWLNGKEYKCKVSNKALPAPIEKTISKAKGQPREPQVYTLPPSREEMTKNQVSLTCLVKGFYPSDIAVEWESNGQPENNYKTTPPVLDSDGSFFLYSKLTVDKSRWQQGNVFSCSVLHEALHNHYTQKSLSLSPGKGGGGSGGGGSGGGGSGGGGSGAHSGPATLCGAELVDALQFVCGDRGFYFNKPTGYGSSSRRAPQTGIVDECCARSCDLRRLEMYCAPLKPTKST
binds: all assays above

B2: PF1802_M021 (GLP1-Fc-mut.IGF1) (Fc fusion)
chain: HGEGTFTSDVSSYLEEQAAKEFIAWLVKGGGGSAPAPGGGGSDKTHTCPPCPAPELLGGPSVFLFPPKPKDTLMISRTPEVTCVVVDVSHEDPEVKFNWYVDGVEVHNAKTKPREEQYASTYRVVSVLTVEHMDWLNGKEYKCKVSNKALPAPIEKTISKAKGQPREPQVYTLPPSREEMTKNQVSLTCLVKGFYPSDIAVEWESNGQPENNYKTTPPVLDSDGSFFLYSKLTVDKSRWQQGNVFSCSVLHEALHNHYTQKSLSLSPGKGGGGSGGGGSGGGGSGGGGSGAHSGPATLCGAELVDALQFVCGDRGFYFNKPTGYGSSSRRAPQTGIVDECCARSCDLRRLEMYCAPLKPTKST
binds: all assays above

B3: PF1802_M020 (GLP1-Fc-mut.IGF1) (Fc fusion)
chain: HGEGTFTSDVSSYLEEQAAKEFIAWLVKGGGGSAPAPGGGGSDKTHTCPPCPAPELLGGPSVFLFPPKPKDTLMISRTPEVTCVVVDVSHEDPEVKFNWYVDGVEVHNAKTKPREEQYASTYRVVSVLTVYHMDWLNGKEYKCKVSNKALPAPIEKTISKAKGQPREPQVYTLPPSREEMTKNQVSLTCLVKGFYPSDIAVEWESNGQPENNYKTTPPVLDSDGSFFLYSKLTVDKSRWQQGNVFSCSVLHEALHNHYTQKSLSLSPGKGGGGSGGGGSGGGGSGGGGSGAHSGPATLCGAELVDALQFVCGDRGFYFNKPTGYGSSSRRAPQTGIVDECCARSCDLRRLEMYCAPLKPTKST
binds: all assays above
